Reference: paper PMC10085706
These are yes or no findings as the source states them, for the method shown. Some results given as binding are weak or reduced against the parent protein; the word gives no strength.

Target: T1, ribosomal protein uL16 of the Cutibacterium acnes 50S subunit (Cutibacterium acnes (endogenous in ATCC 11827 cells)) (UniProt Q6A6N3)
T1 sequence: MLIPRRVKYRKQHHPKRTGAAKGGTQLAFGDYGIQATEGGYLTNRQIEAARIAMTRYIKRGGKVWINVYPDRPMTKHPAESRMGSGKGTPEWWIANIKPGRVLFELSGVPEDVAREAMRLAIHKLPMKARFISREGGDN
Test: cryo-EM structure; re-associated C. acnes 70S ribosomes (0.125 uM) with mRNA, P-site tRNAi-fMet and 200 uM sarecycline; 20 mM Tris-HCl pH 7.4, 60 mM NH4Cl, 10 mM MgCl2; 2.8 Å overall, local refinement 30S body 2.8 Å, 50S 2.6 Å; both purified

binding: binds
B1: ribosomal protein bL25 of the Cutibacterium acnes 50S subunit (protein, UniProt Q6AAC8 1-205)
chain: MADIIHLKAEQRTEFGKGAARRIRRDDKVPAVMYGHDHDPIHVTLDGHATLLALRTENPLLSIEIEGQKPMLALPKDVQRDVLKGFVRHVDLLTVRRGEKVDVNVALRITGESAPGTIAMTEFNEIEVQADLLNIPEVIEIDVTGLEAGTTIYLGDLKLPEGTSLLGDAEDVAATVAFPETEPVEDEESAGEDAQGESEEKAAKE
